For part of these data: For at least one compound, name, drawing or mass did not settle the structure. Some entries share one result that the patent states for a list of compounds.
How the values were obtained:
[1] = tested on: E. coli cloned with pCSS301; test: Light output, click beetle luciferase under PL promoter (pCSS301); type: cell-based, Escherichia coli; settings: light measured after 15 minutes at 30° C.; FIG. 15
[2] = tested on: E. coli pCSS112/K-12 HI trp(c1857); test: Light production, bacterial luciferase under PL promoter (pCSS112); type: cell-based, Escherichia coli; settings: FIG. 13
Description: A comparison is made between plasmids where the expression of bacterial luciferase genes are controlled by either lac (slow) or PL promoter (fast) promoters. E. coli clone pCSS112/K-12 HI trp(c1857) was grown overnight in 2×TY medium containing ampicillin 100 μg/ml. After this a suitable dilution was made in HBSS-buffer or in milk and 500 μl of this was added to 3 ml luminometer tubes. The tubes were equilibrated to 30° C. and different amounts of various toxic substances were added to tubes. Tubes were kept at 30° C. for 20 min, after which the temperature was shifted to 42° C. for 10 minutes. Thereafter the tubes were removed to luminometer chamber which had been equilibrated to 30° C. for automated measurement. As a comparison, an E. coli JM103 clone containing plasmid pCSS108 was used as a control. The control cells were treated similarly but without the heat-shock step. Messanger RNA and protein synthesis were induced in the control cells by adding IPTG to 1 mM. […] In case of chloramphenicol, the kinetics of light production have been shown in FIG. 11a when plasmid pCSS112 in E. coli K-12 HI trp(c1857) strain is used.
The following examples show detection of substances affecting other biosynthetic routes and metabolism of cells. […]
The following figures show the effect of each tested substance as measured by light production. […]

B. subtilis 1A40 cells = test: Light emission, click beetle luciferase (pCSS962), IPTG induced; type: cell-based, Bacillus subtilis; settings: incubation 2 hours at 30° C.; FIG. 11b
Description: Using this construction, the production of luciferase can be turned on in B. subtilis by simple addition of IPTG, which binds to the lac repressor coded by the helper plasmid pBL1 present in the same cell. After IPTG binds to the repressor, the repressor cannot bind to the DNA region between phage T5 promoter and the luciferase gene thus allowing the expression of luciferase. Cells containing both plasmids were cultured overnight in 2×TY containing erythromycin (10 μg/ml, to keep pBL1 in the cell) and kanamycin (10 μg/ml, to keep pCSS952 in the cell). A suitable dilution was made and different amounts of antibiotic were added to the cells. After an incubation period of 2 hours at 30° C., the tubes were measured for light emission after addition of 1 mM D-luciferin substrate in 0.1 M Na-citrate. As shown in FIG. 11b a low amount of 0.1 ug/ml ampicillin and even lower amounts of oxytetracyclin and streptomycin can be detected.

| Structure (SMILES) | sensitivity of the method to detect the substance [1] | amount seen very rapidly by effect on light output [2] | effect on light output [2] | amount that can be detected by light emission (B. subtilis 1A40 cells) [µg/mL] |
| --- | --- | --- | --- | --- |
| CO[C@H]1/C=C/O[C@@]2(C)Oc3c(C)c(O)c4c(O)c(c(/C=N/N5CCN(C)CC5)c(O)c4c3C2=O)NC(=O)/C(C)=C\C=C\[C@H](C)[C@H](O)[C@@H](C)[C@@H](O)[C@@H](C)[C@H](OC(C)=O)[C@@H]1C [rifampicin] | extremely high |  |  |  |
| CN(C)[C@@H]1C(O)=C(C(N)=O)C(=O)[C@@]2(O)C(O)=C3C(=O)c4c(O)cccc4[C@@](C)(O)[C@H]3[C@H](O)[C@@H]12 [oxytetracycline] | extremely high | one | strong and easily detected | < 0.1 |
| [H]/N=C(/N)N[C@H]1[C@H](O)[C@@H](O)[C@H](O[C@@H]2O[C@@H](C)[C@](O)(C=O)[C@H]2O[C@@H]2O[C@@H](CO)[C@H](O)[C@@H](O)[C@@H]2NC)[C@@H](N/C(N)=N\[H])[C@@H]1O [streptomycin] |  |  |  | < 0.1 |

Source: US6475719B1, “Determination of factors affecting gene regulation and/or gene replication” (priority 1989, dated 2002)
